Among the data in PubChem BioAssay AID248 (DTP/NCI, 2004) are survivor count values, retold here.

Structures are written as SMILES. The list is a part of this screen's results and no random one: it gathers tests that were run many times, whatever their T/C, doses with no T/C, and many T/C values between a quarter and a half above the control. Further doses and runs are listed elsewhere. T/C gives the treated animals as a percentage of the vehicle group. Some doses have a count of surviving animals in place of a T/C: the source holds a T/C of zero for them, seemingly a mark for toxic or unscored doses. Some survivor counts are full or nearly so, which does not show that the dose was tolerated: survival well below the control is almost never listed, so the zero probably covers shortened survival too. Survivors were counted at the toxicity check, usually on the fifth day, unless a day is given; later deaths do not show. Schedules are NCI's codes, read here as Q, the interval in days (D) or hours (H), X, the number of doses.

The test relates to L1210 leukemia ip in BDF1 mice, survival T/C. Description: NCI In Vivo Anticancer Drug Screen. Data for tumor model L1210 Leukemia (intraperitoneal) in B6D2F1 (BDF1) mice. As to conditions: T/C endpoint: mean survival time, higher T/C = longer survival.
[1] abbreviates: dose: 200.0 mg/kg/injection, schedule: Q04DX002 (ip), vehicle: Klucel (hydroxypropylcellulose) (HPC).
Setting [2] is: dose: 400.0 mg/kg/injection, schedule: Q04DX002 (ip), vehicle: Klucel (hydroxypropylcellulose) (HPC).
Setting [3] is: dose: 50.0 mg/kg/injection, schedule: Q01DX009 (ip), vehicle: Klucel (hydroxypropylcellulose) (HPC).
Where [4] appears, read: dose: 100.0 mg/kg/injection, schedule: Q01DX009 (ip), vehicle: Klucel (hydroxypropylcellulose) (HPC).
Setting [5] is: dose: 200.0 mg/kg/injection, schedule: Q01DX009 (ip), vehicle: Klucel (hydroxypropylcellulose) (HPC).
Setting [6] is: dose: 400.0 mg/kg/injection, schedule: Q01DX009 (ip), vehicle: Klucel (hydroxypropylcellulose) (HPC).
[7] abbreviates: dose: 150.0 mg/kg/injection, schedule: Q01DX001 (ip), vehicle: other.
Where [8] appears, read: dose: 100.0 mg/kg/injection, schedule: Q04DX003 (ip), vehicle: saline.
[9] abbreviates: dose: 400.0 mg/kg/injection, schedule: Q01DX009 (ip), vehicle: saline.
The mark [10] stands for this setting: dose: 400.0 mg/kg/injection, schedule: Q01DX001 (ip), vehicle: saline.
[11] abbreviates: dose: 200.0 mg/kg/injection, schedule: Q01DX001 (ip), vehicle: saline.

With `O=c1scc(-c2ccc([N+](=O)[O-])cc2)s1`, the survivor count is 0 of 3 (dose: 100.0 mg/kg/injection, schedule: Q04DX002 (ip), vehicle: Klucel (hydroxypropylcellulose) (HPC)); 0 of 3 under setting [1]; 0 of 3 under setting [2].

For the compound `OC[CH2][Hg][I]`, the survivor count reads like this: (dose: 3.13 mg/kg/injection, schedule: Q01DX009 (ip), vehicle: Klucel (hydroxypropylcellulose) (HPC)) 6 of 6; (dose: 12.5 mg/kg/injection, schedule: Q01DX009 (ip), vehicle: Klucel (hydroxypropylcellulose) (HPC)) 2 of 6; (dose: 25.0 mg/kg/injection, schedule: Q01DX009 (ip), vehicle: Klucel (hydroxypropylcellulose) (HPC)) 0 of 6; under setting [3], 0 of 6; under setting [4], 0 of 6; under setting [5], 0 of 6. Moreover, the survivor count under setting [6] is on record as 0 of 6.

Regarding `O=[N+]([O-])c1cc(/C=N/N=C2c3ccccc3-c3ccccc32)ccc1Cl`, the survivor count under setting [7] is given as 6 of 6.

Take `CCCCCCCCCCCC(=O)CC`: for the setting “dose: 100.0 mg/kg/injection, schedule: Q01DX009 (ip), vehicle: saline with Tween-80”, the survivor count is listed as 5 of 6.

With `Cc1ccc(S(=O)(=O)OCC2OC(n3cnc4c(NC=O)ncnc43)C(OC=O)C2OC=O)cc1` (centres undefined), the survivor count (dose: 200.0 mg/kg/injection, schedule: Q01DX005 (ip), vehicle: saline) is given as 5 of 6.

For `CC1OC(O[C@H]2C[C@@H](O)[C@]3(CO)[C@H]4[C@H](O)C[C@]5(C)[C@@H](C6=CC(=O)OC6)CC[C@]5(O)[C@@H]4CC[C@]3(O)C2)C(O)C(O)C1O` (some centres undefined), the survivor count is given as 6 of 10 (dose: 5.0 mg/kg/injection, schedule: Q01DX009 (ip), vehicle: saline); 6 of 10 (dose: 10.0 mg/kg/injection, schedule: Q01DX009 (ip), vehicle: saline); 1 of 10 (dose: 20.0 mg/kg/injection, schedule: Q01DX009 (ip), vehicle: saline); 2 of 6 (dose: 50.0 mg/kg/injection, schedule: Q04DX003 (ip), vehicle: saline); 0 of 6 under setting [8]; 0 of 6 (dose: 200.0 mg/kg/injection, schedule: Q04DX003 (ip), vehicle: saline). For the setting “dose: 400.0 mg/kg/injection, schedule: Q04DX003 (ip), vehicle: saline”, the survivor count is 0 of 6.

With `O=C(C=C(C(F)(F)F)C(F)(F)F)c1ccccc1`, under setting [9], the survivor count is given as 2 of 6.

On to `COc1cc(/C=N/N)cc(OC)c1OC`, for which the survivor count under setting [1] was 0 of 3 and the survivor count under setting [2] is listed as 0 of 3.

In the case of `CCCNC1(C(N)=O)CCN(Cc2ccccc2)CC1`, the survivor count reads like this: (dose: 200.0 mg/kg/injection, schedule: Q04DX003 (ip), vehicle: saline with Tween-80) 1 of 6; (dose: 400.0 mg/kg/injection, schedule: Q04DX003 (ip), vehicle: saline with Tween-80) 0 of 6.

On to `COc1cc(OC)cc(C(=O)N2CC2)c1`, for which the survivor count is given as 5 of 6 (dose: 100.0 mg/kg/injection, schedule: Q01DX009 (ip), vehicle: water); 0 of 6 (dose: 200.0 mg/kg/injection, schedule: Q01DX009 (ip), vehicle: water); 0 of 6 (dose: 400.0 mg/kg/injection, schedule: Q01DX009 (ip), vehicle: water).

Turning to `Nc1nc(=O)[nH]c(N)c1N`, the survivor count under setting [10] was 3 of 6.

For `CCCCCCCCP(=O)(N1CC1CC)N1CC1CC` (centres undefined), the survivor count under setting [10] is on record as 0 of 4.

Take `CCC1C2CC3C4N(C)c5ccccc5C45CC(C2C5O)N3C1O` (centres undefined): the survivor count (dose: 200.0 mg/kg/injection, schedule: Q01DX009 (ip), vehicle: saline with Tween-80) is recorded as 0 of 3.

As to `CC1(C)[C@@H]2CC[C@@]1(CS(=O)(=O)O)C(=O)C2`, for the setting “dose: 400.0 mg/kg/injection, schedule: Q04DX002 (ip), vehicle: other”, the survivor count is 2 of 3.

Regarding `Cc1ccc(-n2c(=O)[nH]c3c(c2=O)C(c2ccc(Cl)cc2)C(C)(C)O3)cc1` (centres undefined), the survivor count by setting is: (dose: 25.0 mg/kg/injection, schedule: Q01DX001 (ip), vehicle: saline) 6 of 6; (dose: 100.0 mg/kg/injection, schedule: Q01DX001 (ip), vehicle: saline) 6 of 6; under setting [11], 6 of 6; under setting [10], 2 of 6.

`CCOP(=O)(OCC)ON1C(=O)c2cccc3cccc(c23)C1=O`: the survivor count is, setting by setting: under setting [3], 1 of 3; under setting [4], 0 of 3; under setting [5], 0 of 3.

As for `C=C/C(C)=C/[C@H](C)C(=O)C[C@H](O)CC1CC(=O)NC(=O)C1`, the survivor count is listed as 2 of 6 under setting [5] and 0 of 6 under setting [6].

`N#Cc1ccc(C(=O)C=C(C(F)(F)F)C(F)(F)F)cc1`: the survivor count was 1 of 6 (dose: 25.0 mg/kg/injection, schedule: Q01DX009 (ip), vehicle: other); 1 of 6 (dose: 100.0 mg/kg/injection, schedule: Q01DX009 (ip), vehicle: other); 0 of 6 (dose: 200.0 mg/kg/injection, schedule: Q01DX009 (ip), vehicle: other); 0 of 6 (dose: 400.0 mg/kg/injection, schedule: Q01DX009 (ip), vehicle: other).

For `CCCc1ccc(OCC=C(C)C)cc1`, under “dose: 200.0 mg/kg/injection, schedule: Q04DX002 (ip), vehicle: saline with Tween-80”, the survivor count is given as 3 of 3.

`O=C(O)c1ccc2c3c(ccc(C(=O)O)c13)CC2`: the survivor count runs as follows: under setting [11], 2 of 6; under setting [10], 3 of 6.

Turning to `CC(C)Oc1ccc2c(c1)N(CCC1CCCCN1)c1ccccc1S2` (centres undefined), the survivor count under setting [3] is 6 of 6, the survivor count under setting [4] is on record as 0 of 6 and the survivor count under setting [5] is reported as 0 of 6.

Turning to `O=c1ccc([N+](=O)[O-])c[nH]1`, the survivor count under setting [8] is given as 6 of 6.

As to `Cc1csc[n+]1Cc1ccc([N+](=O)[O-])cc1`, the survivor count runs as follows: under setting [11], 0 of 6; under setting [10], 0 of 6.

Turning to `O=C(/C=C/CBr)NC(Cc1ccccc1)C(=O)O` (centres undefined), the survivor count reads like this: under setting [7], 1 of 6; (dose: 300.0 mg/kg/injection, schedule: Q01DX001 (ip), vehicle: other) 0 of 6.

On to `O=C(O)C1CCCC[N-]1.O=C(O)C1CCCC[N-]1.O=C(O)C1CCCC[N-]1.O=C(O)C1CCCC[N-]1.[Cl][Rh][Cl]` (centres undefined), for which the survivor count (dose: 200.0 mg/kg/injection, schedule: Q01DX009 (ip), vehicle: saline) is 4 of 6 and the survivor count under setting [9] was 0 of 6.

Take `NC(=O)C(NC(=O)Nc1ccccc1)C(N)=O`: the survivor count is, setting by setting: (dose: 200.0 mg/kg/injection, schedule: Q04DX003 (ip), vehicle: gum acacia) 5 of 6; (dose: 400.0 mg/kg/injection, schedule: Q04DX003 (ip), vehicle: gum acacia) 2 of 6.

Regarding `CCC1C(=O)N(c2ccc(S(=O)(=O)O)cc2)N=C1C` (centres undefined), the survivor count (dose: 400.0 mg/kg/injection, schedule: Q04DX003 (ip), vehicle: Klucel (hydroxypropylcellulose) (HPC)) is recorded as 6 of 6.

In the case of `CC(=O)Nc1onc(C)c1N`, the survivor count runs as follows: (dose: 100.0 mg/kg/injection, schedule: Q01DX009 (ip), vehicle: saline) 6 of 6; under setting [9], 0 of 6.

`O=C1C2(Cl)C3(Cl)C4(Cl)C(Cl)(Cl)C5(Cl)[C@]3(Cl)C1(Cl)[C@]5(Cl)C24Cl` (some centres undefined): the survivor count (dose: 300.0 mg/kg/injection, schedule: Q01DX001 (ip), vehicle: carboxymethylcellulose (CMC)) is 0 of 6.
